From article PMC7862700
This is a selection; strong and weak results do not stand in their true shares. At the low end of the ranking, values are background and their order means little.

The chains behind the UniProt entries cited, without tags or fusion partners. Where a name states a change or a piece, a line headed by the entry shows the natural chain unless it says otherwise.
UniProt Q9Y603: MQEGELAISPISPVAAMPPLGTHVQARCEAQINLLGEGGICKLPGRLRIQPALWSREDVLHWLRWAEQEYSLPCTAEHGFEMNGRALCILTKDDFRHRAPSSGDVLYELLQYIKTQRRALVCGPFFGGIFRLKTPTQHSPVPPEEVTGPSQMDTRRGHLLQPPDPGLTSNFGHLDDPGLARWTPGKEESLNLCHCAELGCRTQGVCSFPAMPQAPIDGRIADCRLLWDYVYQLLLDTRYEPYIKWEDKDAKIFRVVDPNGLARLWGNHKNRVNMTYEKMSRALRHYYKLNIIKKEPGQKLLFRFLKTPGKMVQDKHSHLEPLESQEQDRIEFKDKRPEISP
UniProt P41212: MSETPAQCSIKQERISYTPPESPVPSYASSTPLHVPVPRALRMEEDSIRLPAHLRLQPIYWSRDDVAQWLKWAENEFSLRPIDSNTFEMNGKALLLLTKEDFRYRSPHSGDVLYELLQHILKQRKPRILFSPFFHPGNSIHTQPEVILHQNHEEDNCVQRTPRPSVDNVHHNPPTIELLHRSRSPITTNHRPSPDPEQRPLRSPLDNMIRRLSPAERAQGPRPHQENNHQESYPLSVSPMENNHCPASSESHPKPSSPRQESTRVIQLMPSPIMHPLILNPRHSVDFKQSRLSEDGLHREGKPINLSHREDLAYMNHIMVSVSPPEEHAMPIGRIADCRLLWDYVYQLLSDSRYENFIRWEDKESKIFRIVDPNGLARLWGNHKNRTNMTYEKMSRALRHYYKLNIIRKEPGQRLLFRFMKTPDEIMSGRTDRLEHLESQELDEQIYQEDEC

Columns and labels:
Assay in all cases: DAPPL (digital affinity profiling via proximity ligation, sequencing)
Conditions in all cases: 10 mM Tris-HCl pH 7.5, 50 mM NaCl, 1 mM DTT, 4% glycerol, room temperature, 30 min; GST-TFs on glutathione beads, 16-mer random dsDNA library, 0.1% …; high values mean tight binding; double strand, one strand shown; scale: fold enrichment (6-mer frequency, TF over GST control)
ELF3 = biological target: T1, ELF3 (UniProt P78545)
T1 sequence: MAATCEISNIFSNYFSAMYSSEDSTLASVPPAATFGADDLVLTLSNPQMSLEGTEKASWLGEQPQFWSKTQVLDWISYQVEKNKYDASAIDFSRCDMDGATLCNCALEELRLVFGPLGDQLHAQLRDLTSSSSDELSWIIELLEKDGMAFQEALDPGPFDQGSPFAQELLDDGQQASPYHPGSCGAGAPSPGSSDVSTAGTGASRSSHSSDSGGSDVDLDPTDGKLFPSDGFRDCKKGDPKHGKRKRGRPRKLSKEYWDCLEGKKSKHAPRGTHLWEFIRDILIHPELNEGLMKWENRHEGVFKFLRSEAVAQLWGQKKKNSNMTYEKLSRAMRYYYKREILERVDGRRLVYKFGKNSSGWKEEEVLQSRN

ETV7 = ETV7 (UniProt Q9Y603)
ETV6 = ETV6 (UniProt P41212)

Sequence | binding signal (ELF3) | binding signal (ETV7) | binding signal (ETV6)
AGCCTA | 0.905 | 1.13 | 0.969
TGGGCG | 0.818 | 0.988 | 0.905
TGAATG | 1.08 | 1.21 | 1.22
CGCCAT | 0.91 | 0.911 | 0.941
GCAAGC | 0.917 | 0.843 | 0.918
GTTATC | 0.893 | 0.989 | 1.1
CAAAGA | 0.916 | 0.936 | 0.957
GACCAA | 0.86 | 0.858 | 0.872
GAGAAT | 0.855 | 0.78 | 0.761
ACAGTT | 0.888 | 0.836 | 0.853
GCCATC | 0.874 | 0.983 | 0.875
GCAGAA | 0.814 | 0.954 | 0.873
GATGGA | 0.896 | 0.924 | 0.951
GTGTTG | 0.9 | 0.905 | 0.911
TGAAGC | 0.804 | 0.96 | 1.01
TTAAGA | 0.886 | 1.13 | 1.05
CTGGGG | 0.765 | 0.956 | 0.929
TCGAGG | 0.825 | 0.823 | 0.843
TCGTCG | 0.86 | 0.999 | 0.98
TCAAGA | 0.997 | 0.903 | 0.83
ATTCAC | 1.27 | 1.24 | 1.17
GGCTTT | 0.966 | 1.16 | 1.06
TGGGAC | 0.767 | 0.908 | 0.87
GCGTCA | 0.894 | 0.942 | 0.968
CTCTAC | 1.47 | 1.28 | 1.43
CGCAAT | 0.812 | 0.948 | 0.903
AGGGTT | 0.886 | 0.872 | 0.921
GTAGAT | 1.01 | 0.989 | 0.961
CTGTGG | 0.796 | 0.882 | 0.877

Some of the entries so far, with tabs:
Sequence	binding signal (ELF3)	binding signal (ETV7)	binding signal (ETV6)
AGGGTT	0.886	0.872	0.921
CTGTGG	0.796	0.882	0.877
